AC50 data for 44 compounds are collected here from PubChem BioAssay AID662 (National Center for Advancing Translational Sciences (NCATS), 2007).

This is one part of the list. Further columns of the screen follow, without active or inactive calls. The list favours compounds with an active or inconclusive main result. Potencies come from curve fits of mixed quality, noted in brackets.

A short description of this test: Cell signaling CRE-BLA (Fsk stim). The note with it: CHO CRE-bla reporter (cAMP response element driving beta-lactamase), forskolin EC10, beta-lactamase ratio; measured here: 460 nm blue channel. A digest of the protocol:
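CRE-bla CHO cells stimulated with EC10 NKH 477 (water-soluble forskolin) and compound titrations, 3 h at 37C; beta-lactamase read with CCF4 after 2 h at room temperature. Activity from 460/530 nm emission ratio, AC50 values for positive or negative modulation.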
In general, AC50 refers to the midpoint of the concentration-response curve, whichever way the signal moves. As to `Cc1cc2nc(-c3ccc(SCC(=O)N4CCN(C(=O)c5ccco5)CC4)nc3)[nH]c2cc1C`, the concentration at half-maximal activity (AC50) is 2 µM [rising, partial curve].
With `COc1ccc(-n2c(=O)c(-c3cc(F)cc(F)c3)nc3cnc(N4CCOCC4)nc32)cc1` the figure was 2.51 µM [rising, full curve]; with `Cc1noc(C)c1COC(=O)Cc1ccc(Cl)cc1`, 0.2 µM [falling, partial curve].
With `CC(C)c1nnc(SCC(=O)NCc2ccco2)n1C`, the AC50 was 0.00316 µM [falling, full curve, poor fit].
Then `Fc1cc2nc(-c3ccncc3)[nH]c2cc1F`, with 20 µM [rising, single point]; and `Cc1cccc(-c2nc(C#N)c(N3CCCCCC3)o2)c1`, with 7.94 µM [rising, partial curve]; and `CCC(C)C(=O)Nc1cc(C(=O)OC)cc(C(=O)OC)c1` (centres undefined), with 12.6 µM [rising, partial curve].
With `C/C=C/Cn1c(SCc2ccc(C)cc2)nc2c1c(=O)[nH]c(=O)n2C` the figure was 15.8 µM [rising, partial curve]; with `COC(=O)COC(=O)c1ccc(Oc2nc(OC)nc(N(C)C)n2)cc1`, 20 µM [rising, single point].
Then `Cc1cc(Nc2ccc(F)cc2Cl)n2nc(C)nc2n1`, with 10 µM [rising, partial curve].
For the compound `NC(=O)c1ccsc1NC(=O)COC(=O)C1CCCN1C(=O)c1cccs1` (centres undefined), the AC50 was 2 µM [rising, single point].
On to `CCn1c(C)c(CCC(=O)O)c(=O)n2nc(-c3ccccc3OC)cc12`, for which the AC50 was 25.1 µM [falling, single point].
With `Fc1ccccc1N1CCN(C(c2cccs2)c2nnnn2CCc2ccccc2)CC1` (centres undefined) the figure was 12.6 µM [falling, partial curve, poor fit]; with `COc1ccccc1CCn1c(=O)c(-c2cccc(Cl)c2)nc2cncnc21`, 6.31 µM [rising, partial curve].
With `Cc1ccc2c(c1)c(-c1ccccc1)nc1nncn12` the figure was 10 µM [rising, partial curve]; with `Cc1cc(C)c2cc(CN(Cc3cccs3)Cc3nnnn3CC3CCCO3)c(=O)[nH]c2c1` (centres undefined), 10 µM [rising, single point]; with `CCOC(=O)c1cc(-c2ccc(N)cc2)sc1N`, 12.6 µM [rising, single point].
With `CCCn1c(Sc2nnnn2-c2ccccc2)n[nH]c1=O` the figure was 1 µM [falling, partial curve, poor fit]; with `O=C(NCc1ccco1)c1cc2sccc2n1Cc1ccc(F)cc1`, 20 µM [falling, single point].
On to `COc1ccc(CCNC(=O)c2nnn(-c3ccc4c(c3)OCCO4)c2N)cc1OC`, for which the AC50 was 3.16 µM [rising, partial curve].
On to `c1ccc(Cn2nnc3c(N4CCCCCC4)ncnc32)cc1`, for which the half-maximal activity concentration (AC50) is 2.51 µM [rising, full curve].
Then `O=C(OCc1nc2ccccc2s1)c1cccc(S(=O)(=O)N2CCOCC2)c1`, with 5.01 µM [falling, single point].
With `CC1=C(C)CS(=O)N(c2ccc(S(N)(=O)=O)cc2)C1` (centres undefined) the figure was 2 µM [falling, full curve]; with `COCCCNC(=O)c1c(N)n(-c2cccc(S(N)(=O)=O)c2)c2nc3ccccc3nc12`, 12.6 µM [rising, partial curve]; with `CCn1c2ccccc2c2nnc(SCc3ccccc3)nc21`, 3.16 µM [rising, partial curve].
Then `CCOC(=O)c1ccccc1NC(=O)CN1C(=O)CCS(=O)(=O)c2ccccc21`, with 0.251 µM [falling, partial curve].
On to `CCOC(=O)CCC(=O)OCC(=O)NC(C)C1CC2CCC1C2` (centres undefined), for which the concentration at half-maximal activity (AC50) was 3.98 µM [falling, single point].
Then `O=C(NC1=NCCS1)NC12CC3CC(CC(C3)C1)C2`, with 3.16 µM [falling, partial curve].
Then `O=C(CSc1nnc(-c2cccs2)n1Cc1ccco1)Nc1ccc2c(c1)OCO2`, with 5.01 µM [falling, single point]; and `COc1ccc(-c2nc3cnc(Nc4cccc(OC)c4)nc3n(C)c2=O)cc1`, with 7.94 µM [rising, partial curve].
Then `COc1ccccc1N1CCN(C(=O)c2cc(-c3ccc(Br)cc3)on2)CC1`, with 15.8 µM [falling, partial curve, poor fit].
For `C=CCn1c2ccccc2c2nnc(SC(CC)C(=O)Nc3nc(C)c(C(=O)OCC)s3)nc21` (centres undefined), the half-maximal activity concentration (AC50) was 0.631 µM [rising, full curve].
With `COC(=O)Cn1c(=NC(=O)CSCC(=O)NC2CCCCC2)sc2cc(OC)ccc21` the figure was 0.158 µM [falling, full curve].
Regarding `C=CCc1c(C)nc(SC)nc1Nc1ccc(C(=O)O)cc1`, the half-maximal activity concentration (AC50) is 10 µM [rising, partial curve].
Then `CCCCNc1nc(C)nc2c1nc(C)n2CCC`, with 10 µM [rising, partial curve]; and `CC(C)Sc1nc(-c2cccs2)nc2c1c(=O)n(C)c(=O)n2C`, with 2.51 µM [rising, full curve].
With `Cc1cc(O)c2c(-c3ccccc3)cc(=O)oc2c1` the figure was 25.1 µM [rising, single point]; with `O=C(Nc1cccc(O)c1)c1ccc(Br)cc1`, 15.8 µM [rising, partial curve, poor fit].
With `Oc1cc2c(cc1O)[C@H]1c3ccc(O)c(O)c3OC[C@@]1(O)C2` the figure was 31.6 µM [falling, single point]; with `COC(=O)c1[nH]c2ccc(C)cc2c1NC(=O)CN1CCN(c2ccccc2)CC1`, 7.94 µM [falling, partial curve]; with `CC(Sc1nc(N2CCOCC2)c2c(c1C#N)CC(C)(C)OC2)C(=O)Nc1ccccc1` (centres undefined), 10 µM [rising, partial curve].
As for `Cc1cc(C)nc(SCc2ccccc2C#N)n1`, the half-maximal activity concentration (AC50) was 12.6 µM [rising, single point].
With `CCC1CCCCN1C(=O)CSc1nc(N)c(NC(=O)c2ccc(OC)c(OC)c2)c(=O)[nH]1` (centres undefined) the figure was 10 µM [rising, partial curve]; with `CCc1ccc(N2CC(C(=O)NC3=NCCS3)CC2=O)cc1` (centres undefined), 3.16 µM [falling, single point].
